Assay results as given in article PMC9136512.
These are yes or no findings as the source states them, for the method shown. Binding seen in cells or lysates may run through a third protein. Some binding calls cover weakened binding; strength is not graded here.

Molecular target: T1, CDK5RAP3 (CDK5 regulatory subunit associated protein 3) (not stated (endogenous; mouse MEFs or human MCF7, cells not named for the co-IP)), Q99LM2
T1 chain: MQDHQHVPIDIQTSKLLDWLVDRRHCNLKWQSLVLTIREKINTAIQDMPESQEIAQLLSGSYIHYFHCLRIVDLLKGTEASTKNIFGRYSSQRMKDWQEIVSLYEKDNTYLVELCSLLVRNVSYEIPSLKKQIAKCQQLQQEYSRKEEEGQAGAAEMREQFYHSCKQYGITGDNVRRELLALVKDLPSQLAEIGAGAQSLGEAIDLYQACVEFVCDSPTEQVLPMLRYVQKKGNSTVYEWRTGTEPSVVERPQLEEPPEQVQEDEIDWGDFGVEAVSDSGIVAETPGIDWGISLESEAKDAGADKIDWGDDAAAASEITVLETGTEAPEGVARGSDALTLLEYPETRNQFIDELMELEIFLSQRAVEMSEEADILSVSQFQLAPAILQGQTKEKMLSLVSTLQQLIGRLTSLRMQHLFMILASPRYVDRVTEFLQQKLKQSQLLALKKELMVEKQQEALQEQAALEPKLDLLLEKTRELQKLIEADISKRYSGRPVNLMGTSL
Assay: co-IP; anti-CDK5RAP3 antibody (IgG as control) added to the cell lysate overnight at 4°C, r-protein A/G magnetic beads 2 h at room temperature, Western blot; cells not named
Conditions: remark: other sources report otherwise

B1: DDRGK1, Q80WW9 1-315 (protein)
chain: MVGPWVYLVAAVLLIGLILFLTRSRGRAAAADGEPLHNEEERAGAGQVGRSLPQESEEQRTGSRPRRRRDLGSRLQAQRRAQRVAWEDGDENVGQTVIPAQEEEGIEKPAEVHPTGKIGAKKLRKLEEKQARKAQREAEEAEREERKRLESQREAEWKKEEERLRLKEEQKEEEERKAQEEQARREHEEYLKLKEAFVVEEEGVSETMTEEQSHSFLTEFINYIKKSKVVLLEDLAFQMGLRTQDAINRIQDLLTEGTLTGVIDDRGKFIYITPEELAAVANFIRQRGRVSITELAQASNSLISWGQDLPAQASA
- binding: binds
